# Some of the results follow. These are further read-outs of the screen, such as a control signal, another cell line or another target. No call is given for them. Most of these compounds were active or inconclusive in the main read-out, so they are no random draw. Potencies come from curve fits of mixed quality, noted in brackets.
# Assay: IkB Signaling
# Conditions: ABC-DLBCL IkBa-CBG/CBR dual luciferase ratio (green luciferase fused to IkBa over red control in OCI-Ly3 lymphoma cells), 4 h; measured here: control luc red channel unless noted
# Procedure, shortened: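 In this assay, an IκBα–CBG68 fusion accumulates when IKK-driven degradation is blocked; native CBR normalizes for cell number. OCI-Ly3 cells were treated 4 h with compound and doxycycline, then green and red light read after Chroma-Glo addition.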
row,Compound,AC50
1,COc1cccc(-n2cc(C(=O)NCc3ccccc3OC)c3ccccc3c2=O)c1,"1.58 µM [rising, full curve]"
2,Cn1c(=O)c2c(nc(NCc3ccccc3)n2CCCc2ccccc2)n(C)c1=O,"20 µM [falling, partial curve]"
3,COC(=O)c1[nH]c2ccccc2c1NC(=O)CN1CCN(C/C=C/c2ccccc2)CC1,"10 µM [falling, partial curve]"
4,O=C(Cn1cc2c(n1)CCCCC2)NCc1cccs1,"12.6 µM [falling, partial curve]"
5,CC(=O)Nc1cc(C(=O)NCc2ccc(C)cc2)ccc1Sc1ccc(C)cc1,"25.1 µM [falling, partial curve]"
6,O=C(Nc1nnc(-c2ccco2)s1)c1ccccc1,"1.58 µM [falling, full curve]"
7,CCc1ccc(-c2nc(CN3CCCC(C(=O)N4CCN(c5cc(Cl)ccc5C)CC4)C3)c(C)o2)cc1 (stereo unspecified),"15.8 µM [falling, partial curve]"
8,COc1ccc(Cl)cc1NC(=O)CN(C)S(=O)(=O)c1ccc2c(c1)CCCN2C(C)=O,"15.8 µM [falling, partial curve]"
9,Cc1cccc(-n2c(=O)c3c(c4cc(C)ccc4n3C)n(CC(=O)NCCC3=CCCCC3)c2=O)c1,"20 µM [falling, single point]"
10,COc1ccc(-c2noc(-c3cccnc3NCc3ccco3)n2)cc1,"15.8 µM [rising, partial curve]"
11,CCOC(=O)CSc1nc2ccccc2c(=O)n1CCc1ccc(OC)c(OC)c1,"39.8 µM [falling, single point]"
12,O=C(Nc1ccc(Cl)cc1C(=O)Nc1ccc(Br)cn1)c1ccco1,"15.8 µM [falling, partial curve]"
13,Cc1ccc(Oc2c(C(F)(F)F)oc3cc(OCC(=O)NC4CCCCC4)ccc3c2=O)cc1,"0.316 µM [falling, full curve, poor fit]"
14,CCc1cccc(C)c1NC(=O)CSc1nc(C)cc(C)c1C(=O)Nc1ccccc1,"31.6 µM [falling, single point]"
15,COc1ccc(NC(=O)C(c2ccc(C)cc2)N(C)C(=O)Cc2cccs2)cc1 (stereo unspecified),"20 µM [falling, partial curve]"
16,Cc1ccc2cc(CN(Cc3cccs3)Cc3nnnn3CC3CCCO3)c(=O)[nH]c2c1C (stereo unspecified),"20 µM [falling, partial curve]"
17,COc1ccc(-c2cccc(NS(=O)(=O)c3cc(C)c(OC)c(C)c3C)c2)nn1,"15.8 µM [falling, partial curve]"
18,Cc1ccc(-n2c(C)cc(C(=O)OCC(=O)N(C)C3CCS(=O)(=O)C3)c2C)cc1 (stereo unspecified),"12.6 µM [falling, partial curve]"
19,CC(C)N(Cc1ccccc1)c1ncnc2c1nnn2C,"3.16 µM [rising, single point]"
20,COc1ccccc1-c1nnc(SCCOc2ccccc2C)o1,"39.8 µM [falling, single point]"
21,COc1ccc2c(c1)C(=O)N(c1ccccc1OC)C(=O)C2,"10 µM [falling, partial curve]"

row,Compound,AC50
1,CCOC(=O)c1cc(-c2ccc(OC)c(S(=O)(=O)Nc3ccc(OC)cc3OC)c2)on1,"25.1 µM [rising, single point] [measured here: IkB-luc green channel]"
2,O=C(Nc1ccc2nc(SCCOc3ccccc3Cl)sc2c1)c1cccs1,"6.31 µM [falling, partial curve]"
3,CCOc1cc(N2CCOCC2)c(OCC)cc1NC(=O)c1cc(-c2ccco2)nc2ccccc12,"0.501 µM [falling, full curve, poor fit]"
4,O=C(CSc1ncnc2sc3c(c12)CCCCC3)NCc1ccco1,"10 µM [falling, partial curve]"
5,O=C(NCc1ccc(Cl)cc1)C1CCCN(C(=O)c2cnn(-c3ccc(F)cc3)c2-n2cccc2)C1 (stereo unspecified),"15.8 µM [falling, partial curve]"
6,CCCc1cc(C(=O)Nc2c(C)nn(Cc3ccc(C)cc3)c2C)no1,"25.1 µM [falling, partial curve]"
7,CCC(=O)N1CCc2cc(CNC(=O)C(CC)c3ccccc3)ccc21 (stereo unspecified),"2 µM [rising, full curve, poor fit]"
8,Cc1nn(-c2ccccc2)c2sc(C(=O)OCc3nnc(-c4ccccc4)o3)cc12,"3.16 µM [falling, single point]"
9,Cc1ccc(CNC(=O)CCSCc2ccccc2F)cc1,"39.8 µM [falling, partial curve]"
10,Cc1ccc(N(C(=O)COc2ccccc2C)S(=O)(=O)c2ccc(Cl)cc2)cc1,"10 µM [falling, partial curve]"
11,Cc1ccc(Nc2c(-c3cc(Br)ccc3F)nc3cc(C)ccn23)cc1,"12.6 µM [falling, partial curve, poor fit]"
12,CCN(CC)S(=O)(=O)c1cc(-c2nnc(Nc3ccc(OC)c(C(N)=O)c3)c3ccccc23)ccc1C,"2.51 µM [falling, partial curve]"
13,Cc1ccc(NC(=O)c2cccc(N3CCCS3(=O)=O)c2)cc1,"39.8 µM [falling, partial curve]"
14,CN(C)S(=O)(=O)c1ccc(S(=O)(=O)Nc2ccc3c(c2)oc2ccccc23)cc1,"15.8 µM [falling, partial curve]"
15,COc1ccccc1N1CCN(c2ccc(=O)n(CC(=O)Nc3ccc(F)c(F)c3)n2)CC1,"12.6 µM [falling, partial curve]"
16,Cc1c(NC(=O)c2ccc(Cl)cc2)cc(C(C)C)c(O)c1S(=O)(=O)c1ccc(Cl)cc1,"6.31 µM [falling, partial curve]"
17,Cc1nc2c(C(=O)NCCc3ccccc3)cnn2c(C)c1Cc1c(F)cccc1Cl,"31.6 µM [falling, partial curve]"
18,CC(C)(C)OC(=O)N1CCC(c2c(C(=O)NCc3cccs3)cnn2-c2ccc(F)cc2F)CC1,"20 µM [falling, partial curve]"
19,O=C(O)c1cccc(N2CCCC2)c1,"398 nM [falling, full curve] [measured here: IkB-luc green channel]"
20,Cc1noc(/C=C/N(C)C)c1S(=O)(=O)N1CCCC(C(=O)Nc2ccc(F)cc2F)C1 (stereo unspecified),"10 µM [falling, partial curve]"
21,CCN(CC)C(=O)c1sc(NC(=O)C(C)Sc2nc(-c3ccccc3)cc(C(F)(F)F)n2)c(C(=O)OC)c1C (stereo unspecified),"1.26 µM [falling, partial curve]"

# Molecules shown so far that contain a furan ring, fused or not, in the order listed:
row,Compound,AC50
6,O=C(Nc1nnc(-c2ccco2)s1)c1ccccc1,"1.58 µM [falling, full curve]"
10,COc1ccc(-c2noc(-c3cccnc3NCc3ccco3)n2)cc1,"15.8 µM [rising, partial curve]"
12,O=C(Nc1ccc(Cl)cc1C(=O)Nc1ccc(Br)cn1)c1ccco1,"15.8 µM [falling, partial curve]"
3,CCOc1cc(N2CCOCC2)c(OCC)cc1NC(=O)c1cc(-c2ccco2)nc2ccccc12,"0.501 µM [falling, full curve, poor fit]"
4,O=C(CSc1ncnc2sc3c(c12)CCCCC3)NCc1ccco1,"10 µM [falling, partial curve]"
14,CN(C)S(=O)(=O)c1ccc(S(=O)(=O)Nc2ccc3c(c2)oc2ccccc23)cc1,"15.8 µM [falling, partial curve]"

# Continued.

row,Compound,AC50
1,COc1ccc(C2=CC(c3ccccc3F)n3ncc(C(=O)Nc4ccc(C)cc4)c3N2)cc1 (stereo unspecified),"12.6 µM [falling, partial curve, poor fit]"
2,CCOC(=O)c1c(-c2ccccc2)csc1NC(=O)c1nc(S(=O)(=O)CC)ncc1Cl,"7.94 µM [falling, full curve]"
3,Cc1cccc(-c2c3c(=O)n(C)c(=O)n(C)c3cn2-c2cc(N)c(Cl)cc2Cl)c1,"31.6 µM [falling, partial curve]"
4,CN(C)c1oc(/C=C/c2ccc(F)cc2)nc1C#N,"0.794 µM [rising, partial curve]"
5,CCN(c1ccccc1)c1nnc(NC(=O)Nc2cccc(Cl)c2C)s1,"25.1 µM [falling, single point]"
6,CC(=O)c1ccc(NC(=O)Nc2nnc(N3CCCC(C)C3)s2)cc1 (stereo unspecified),"12.6 µM [falling, partial curve]"
7,CSc1ccc(-c2nc3ncccn3c2Nc2ccc(C)c(C)c2)cc1,"25.1 µM [falling, single point]"
8,Nc1cc(=O)nc(SCC(=O)Nc2cccc(Cl)c2)n1CCc1ccccc1,"15.8 µM [falling, partial curve, poor fit]"
9,Cc1cc(C)c2c(=O)cc(CSc3nnc(COc4ccccc4C)n3C)[nH]c2c1,"39.8 µM [falling, single point]"
10,COc1ccc(CC(=O)NCc2ccc3c(c2)CCN3C(=O)c2ccc(Cl)cc2)cc1OC,"7.94 µM [falling, partial curve]"
11,CCOC(=O)c1ccc(N2C(=O)c3n[nH]c(-c4cccs4)c3C2c2ccc(C(C)C)cc2)cc1 (stereo unspecified),"12.6 µM [falling, single point]"
12,Cc1ccc2c(c1)c1c(c(=O)n(-c3ccccc3C)c(=O)n1CC(=O)NCc1ccccc1)n2C,"3.16 µM [falling, full curve]"
13,Cc1cc(-c2ccc(C)c(S(=O)(=O)N(C)c3ccc(C)c(C)c3)c2)on1,"39.8 µM [falling, partial curve]"
14,COc1ccccc1NC(=O)Cn1c(=O)n(Cc2ccco2)c(=O)c2cccnc21,"31.6 µM [falling, single point]"
15,Cc1ccc(OCCCn2c(CCNC(=O)C3CCCCC3)nc3ccccc32)c(C)c1,"10 µM [falling, partial curve]"
16,COC(=O)c1ccc(NCC(=O)c2ccccc2)cc1,"39.8 µM [rising, single point] [measured here: IkB-luc green channel]"
17,CCOC(=O)c1c(Oc2ccc(OC)cc2)nnc(-c2ccccc2)c1-c1ccccc1,"10 µM [falling, partial curve, poor fit]"
18,COc1ccc(OC)c(NC(=O)CN2C(=O)c3ccccc3Sc3ccc(C(=O)N4CCCC4)cc32)c1,"1.58 µM [rising, full curve]"
19,Fc1ccc(C(c2nnnn2Cc2ccccc2)N2CCSCC2)cc1 (stereo unspecified),"39.8 µM [falling, single point]"

# Single entries from the results shown:
# AC50, COc1ccc2c(c1)C(=O)N(c1ccccc1OC)C(=O)C2 reads 10 µM [falling, partial curve]
# AC50, CCc1ccc(-c2nc(CN3CCCC(C(=O)N4CCN(c5cc(Cl)ccc5C)CC4)C3)c(C)o2)cc1 (stereo unspecified) reads 15.8 µM [falling, partial curve]

# Reference: PubChem BioAssay AID445 (National Center for Advancing Translational Sciences (NCATS), 2006)
